Results published in PubChem BioAssay AID2685 (National Center for Advancing Translational Sciences (NCATS), 2010).
Some of the results follow. Shown are side measurements of this screen, not its main read-out; they come without a call. The list favours compounds with an active or inconclusive main result. Words in brackets tell the shape of the fitted curve; partial curves, single points and poor fits give uncertain potencies.

Experiment: qHTS Assay for Lipid Storage Modulators in Drosophila S3 Cells;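 for cell number change: cells counted by Cell Tracker Red CMTPX staining in the red channel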
Conditions: BODIPY lipid droplet fluorescence, 18-24 h; for cell number change: measured here: cell count max response, cells fed with added oleic acid
How it was run: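 Drosophila S3 cells loaded with oleic acid (400 uM, as added) and compounds at several concentrations; lipid droplets imaged by 488-nm laser-scanning cytometry, 500–530 nm intensity and object ratio to cell channel. Percent activity normalized to 20 uM Triacsin C.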

[1] = measured here: lipid fluorescence (Fed channel) AC50, cells fed with added oleic acid
[2] = measured here: cell number channel AC50, cells fed with added oleic acid

Row | SMILES | cell number change [%] | AC50 [1] | AC50 [2]
1 | COc1ccc(C(CNC(=O)c2cc(S(=O)(=O)N3CCCC3)ccc2Cl)N2CCCC2)cc1 (centres undefined) | 26.7 | 29.1 µM [rising, single point] | 
2 | CCC(=O)c1ccc(OCC(O)CNC2CCCC2)cc1 (centres undefined) | 5.57 |  | 
3 | Cc1cccc(C(=O)NCCCNC(=O)c2cccnc2)c1 | 19.6 |  | 
4 | CCN(CC(=O)Nc1c(F)cccc1F)C(=O)C1CCC1 | -12.9 |  | 
5 | CCc1cc(-c2n[nH]c(=S)n2-c2ccccc2C)cs1 | -21 |  | 
6 | COc1cc(OC)c(OC)cc1/C=C(\C#N)C(=O)NCc1cccs1 | -11.2 | 0.00461 µM [falling, full curve, poor fit] | 
7 | Cc1cccc(Nc2nnc(SCC(=O)NC(=O)CN3CCCC3=O)s2)c1 | -22.9 |  | 
8 | COc1ccc(/C=C/c2nc(S(=O)(=O)c3ccccc3)c(N(C)C)o2)cc1OC | -10.5 |  | 0.731 µM [rising, full curve]
9 | O=C(NCCCn1ccnc1)c1cc(Cl)cc(Cl)c1 | -10.9 |  | 0.058 µM [falling, full curve, poor fit]
10 | O=C(NC1CCCCC1)C1CCN(c2nccs2)CC1 | 14 | 2.59 µM [rising, full curve, poor fit] | 
11 | COC(=O)c1ccc2c(c1)C(C)(C)C(/C=C/c1ccccc1O)=[N+]2C | -1.89 | 0.58 µM [falling, single point] | 5.8 µM [falling, single point]
12 | O=C(Cc1ccccc1)NCC(=O)Nc1cccc(Cl)c1 | 12.4 |  | 
13 | Cc1ccc(C2(C)NC(=O)N(CC(=O)NC(=O)NC(C)C)C2=O)cc1 (centres undefined) | 33.3 |  | 29.1 µM [rising, single point]
14 | CC(C)S(=O)(=O)c1csc(NC(=O)Nc2cc(Cl)ccc2Cl)c1Cl | -51.5 | 29.1 µM [falling, single point] | 1.46 µM [falling, partial curve]
15 | COC(=O)c1ccc(COC(=O)C(NC(=O)Cc2ccccc2)C(C)C)cc1 (centres undefined) | 43.5 |  | 29.1 µM [rising, single point]
16 | CCN(CC)S(=O)(=O)c1ccc(C(=O)NCCN(C)C)cc1 |  |  | 6.51 µM [falling, single point]
17 | CCOc1ccc(C(=O)Nc2nnn(CC)n2)cc1 | 2.68 | 0.082 µM [falling, full curve, poor fit] | 
18 | O=C(O)c1ccccc1NC(=S)NC(NC(=O)c1ccccc1[N+](=O)[O-])C(Cl)(Cl)Cl (centres undefined) | -25 |  | 0.326 µM [falling, full curve, poor fit]
19 | CN(c1ccccc1)S(=O)(=O)c1ccc(Cl)c(C(=O)Nc2nn[nH]n2)c1 | -67.6 |  | 8.2 µM [falling, partial curve]
20 | CCOc1ccc(NC(=O)CN2CCN(CC(=O)Nc3ccc(C(=O)OC)cc3)CC2)cc1 | 62.2 | 16.4 µM [rising, partial curve] | 
21 | COCCCNc1nc2c(c(=O)n(Cc3ccc(Cl)cc3)c(=O)n2C)n1C | -25 | 7.31 µM [falling, partial curve] | 
22 | CN(C)CCCOc1ccc(C(C)(C)c2ccccc2)cc1 | -45.9 | 0.731 µM [falling, full curve] | 0.731 µM [falling, full curve, poor fit]

Row | SMILES | cell number change [%] | AC50 [1] | AC50 [2]
23 | COc1cccc(CNc2ccc(S(N)(=O)=O)cc2)c1OC | -9.64 | 0.0206 µM [falling, full curve] | 0.184 µM [falling, partial curve, poor fit]
24 | CN1CCN(C(=O)c2ccc3c(c2)NC(=O)C(C)(C)O3)CC1 | -41.4 | 1.3 µM [falling, full curve] | 1.03 µM [falling, full curve]
25 | COc1ccc(CNc2nc3ccc(C)cc3s2)c(OC)c1OC | -23.8 | 29.1 µM [falling, single point] | 
26 | Cc1ccc(C)c(S(=O)(=O)NC(C)C(=O)NCc2ccccn2)c1 (centres undefined) | -7.33 | 0.58 µM [falling, single point] | 
27 | O=C(O)Cn1ccc2cc(S(=O)(=O)N3CCCCCC3)ccc21 | 6.46 |  | 0.58 µM [rising, single point]
28 | CC1=C(C#N)C(=O)NC(=O)/C1=C\c1ccc(-c2ccc(C)cc2[N+](=O)[O-])o1 | 25.1 |  | 6.51 µM [rising, single point]
29 | CCC(c1nnnn1CCOC)N1CCN(Cc2ccccc2OC)CC1 (centres undefined) | 16.7 |  | 
30 | Cc1ccc(C(=O)CCC(=O)NNC(=O)c2ccccc2O)cc1 | -16.3 |  | 
31 | CCOCC(=O)Nc1cccc(SC)c1 | 6.55 |  | 
32 | Cc1ccc(C(C)C)c(OCC(=O)Nc2ccc(Cl)cn2)c1 | -47.7 |  | 29.1 µM [falling, single point]
33 | NS(=O)(=O)c1ccc(-c2ccc(/C=C3\SC(=S)N(C4CCS(=O)(=O)C4)C3=O)o2)cc1 (centres undefined) | -17.1 |  | 
34 | COc1ccc(OC)c(S(=O)(=O)N2CCC(C(=O)NC3CCCCC3)CC2)c1 | 4.62 | 29.1 µM [rising, single point] | 
35 | O=C(Nc1cccc(Cl)c1)ON=C1c2ccccc2-c2ccccc21 | -29.3 | 25.9 µM [falling, partial curve, poor fit] | 0.651 µM [rising, full curve]
36 | CCN(CC(=O)Nc1c(F)cccc1F)C(=O)CCCc1nc2ccccc2c(=O)[nH]1 | -5.05 | 29.1 µM [rising, single point] | 
37 | O=C(NCCOC(=O)c1ccc(Cl)cc1)c1cccnc1 | 12.2 | 11.6 µM [rising, single point] | 
38 | Clc1ccc(-c2nn3c(-c4ccncc4)nnc3s2)c(Cl)c1 | -4.91 | 0.00517 µM [rising, full curve, poor fit] | 
39 | O=C(NCC(=O)N1CCN(c2ccccc2O)CC1)c1ccc(Br)o1 | 31 | 23.1 µM [rising, partial curve, poor fit] | 11.6 µM [rising, single point]
40 | Nc1nnc(CCOc2ccc(Cl)cc2)s1 | 27.9 |  | 
41 | COc1cc(/C=N/Nc2ccc(C(F)(F)F)cn2)ccc1O | -2.28 |  | 
42 | CCCC(=O)Nc1ccc2oc(-c3ccncc3)nc2c1 | -39.2 | 0.103 µM [falling, full curve, poor fit] | 29.1 µM [falling, single point]
43 | Cc1c(NC(=O)COC(=O)c2ccc(Br)o2)c(=O)n(-c2ccccc2)n1C | -10.3 | 0.58 µM [rising, partial curve] | 1.46 µM [rising, single point]
44 | CCOC(=O)c1c(N2C(=O)C3CC(C)=C(C)CC3C2=O)sc(C)c1C (centres undefined) | -2.58 | 2.06 µM [rising, partial curve] | 

Row | SMILES | cell number change [%] | AC50 [1] | AC50 [2]
45 | Cc1nn(C(=O)N(C)C)c(C)c1CN1C(=O)c2ccccc2C1=O | 0.549 |  | 
46 | Cc1nc(-n2[nH]c3c(c2=O)CCCC3)[nH]c(=O)c1Cc1ccccc1 | -27.5 | 20.6 µM [falling, single point] | 
47 | CCOC(=O)c1ccc(-n2[nH]c(-c3ccccc3)cc2=O)cc1 |  | 6.51 µM [falling, single point] | 0.461 µM [falling, full curve, poor fit]
48 | CCOC(=O)C(C)c1c(C(=O)c2ccc(C)nc2)c2ccccc2n1C (centres undefined) | 6.2 | 6.51 µM [falling, single point] | 
49 | CCOc1cc(N2CCOCC2)c(OCC)cc1NC(=O)CN1C(=O)NC2(CCCCC2C)C1=O (centres undefined) | 3.21 |  | 
50 | Cc1ccc(-c2nc(N)n(C(=O)Cc3ccccc3)n2)cc1 | -6.56 | 5.8 µM [rising, single point] | 
51 | O=C(CCCOc1ccc(Cl)cc1)Nc1nncs1 | 41.1 | 29.1 µM [rising, single point] | 3.66 µM [rising, partial curve]
52 | CC1CCCC(NC(=O)C2CCC(CNc3c(N4CCCCC4)c(=O)c3=O)CC2)C1C (centres undefined) | -13.1 |  | 
53 | Cc1cc(NC(=O)COC(=O)COc2ccc3c(c2)CCC3)no1 | -4.76 | 6.51 µM [falling, single point] | 
54 | Cc1nc(NC(=O)c2ccccc2)sc1-c1csc(NCc2ccccc2)n1 | -39.9 |  | 
55 | O=C(NCCC1CCCCN1S(=O)(=O)c1ccccc1)C(=O)NCc1ccccc1F (centres undefined) | 3.28 |  | 
56 | CCc1ccc(S(=O)(=O)Nc2cc3c(cc2N2CCCCC2)n(C)c(=O)c(=O)n3C)cc1 | 7.03 |  | 
57 | CC1CCCCN1c1nnc(N)s1 (centres undefined) |  | 0.103 µM [falling, full curve, poor fit] | 
58 | COc1cc(NC(=O)C2CCCN(S(=O)(=O)c3cccc4nsnc34)C2)cc(OC)c1 (centres undefined) | -30.8 | 32.6 µM [rising, single point] | 
59 | Cc1nc(N2CCN(c3ccccn3)CC2)c2c(C)c(C(=O)Nc3c(C)cc(Br)cc3C)sc2n1 | 54 | 2.91 µM [rising, single point] | 29.1 µM [rising, single point]
60 | O=C(CSc1ccc2c(c1)OCCO2)Nc1ncc(Cl)cc1Cl | 35.7 |  | 
61 | COc1cc(CN2CCCC(CO)(Cc3ccccc3)C2)ccc1O (centres undefined) | 15.2 | 29.1 µM [falling, single point] | 
62 | CCCCCCOC(=O)Sc1nc2ccccc2o1 | -4.45 | 10.3 µM [falling, partial curve] | 
63 | CC(=O)N(/N=C/c1cccc(C)c1)c1nc(-c2ccc(Br)cc2)cs1 | -19.2 | 3.26 µM [falling, full curve, poor fit] | 
64 | O=C(Nc1cccnc1Cl)c1cccc(F)c1 | -38.5 |  | 
65 | Cc1cccc2nc(-c3cccnc3)c(NCCC(C)C)n12 | -24.7 | 20.6 µM [falling, single point] | 

Excerpt: nos. 49–62
Row | SMILES | cell number change [%] | AC50 [1] | AC50 [2]
49 | CCOc1cc(N2CCOCC2)c(OCC)cc1NC(=O)CN1C(=O)NC2(CCCCC2C)C1=O (centres undefined) | 3.21 |  | 
50 | Cc1ccc(-c2nc(N)n(C(=O)Cc3ccccc3)n2)cc1 | -6.56 | 5.8 µM [rising, single point] | 
51 | O=C(CCCOc1ccc(Cl)cc1)Nc1nncs1 | 41.1 | 29.1 µM [rising, single point] | 3.66 µM [rising, partial curve]
52 | CC1CCCC(NC(=O)C2CCC(CNc3c(N4CCCCC4)c(=O)c3=O)CC2)C1C (centres undefined) | -13.1 |  | 
53 | Cc1cc(NC(=O)COC(=O)COc2ccc3c(c2)CCC3)no1 | -4.76 | 6.51 µM [falling, single point] | 
54 | Cc1nc(NC(=O)c2ccccc2)sc1-c1csc(NCc2ccccc2)n1 | -39.9 |  | 
55 | O=C(NCCC1CCCCN1S(=O)(=O)c1ccccc1)C(=O)NCc1ccccc1F (centres undefined) | 3.28 |  | 
56 | CCc1ccc(S(=O)(=O)Nc2cc3c(cc2N2CCCCC2)n(C)c(=O)c(=O)n3C)cc1 | 7.03 |  | 
57 | CC1CCCCN1c1nnc(N)s1 (centres undefined) |  | 0.103 µM [falling, full curve, poor fit] | 
58 | COc1cc(NC(=O)C2CCCN(S(=O)(=O)c3cccc4nsnc34)C2)cc(OC)c1 (centres undefined) | -30.8 | 32.6 µM [rising, single point] | 
59 | Cc1nc(N2CCN(c3ccccn3)CC2)c2c(C)c(C(=O)Nc3c(C)cc(Br)cc3C)sc2n1 | 54 | 2.91 µM [rising, single point] | 29.1 µM [rising, single point]
60 | O=C(CSc1ccc2c(c1)OCCO2)Nc1ncc(Cl)cc1Cl | 35.7 |  | 
61 | COc1cc(CN2CCCC(CO)(Cc3ccccc3)C2)ccc1O (centres undefined) | 15.2 | 29.1 µM [falling, single point] | 
62 | CCCCCCOC(=O)Sc1nc2ccccc2o1 | -4.45 | 10.3 µM [falling, partial curve] | 
